The campaign covered roughly 53,000 sequences. About 3,700 (7%) were called active.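 The calls were made as follows: active = gene knockdowns whose robust z-score for IL-1 alpha signal is at least 2 or at most -2, so actives lie on both sides; inactive = the rest.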 The list shows a part of the results.
Assay: Components of the Cytosolic LPS Sensing Pathway: Gene Identification via Genome-wide siRNA Screen;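 also: robust z of the log signal after scaling to non-targeting control siRNA wells of the plate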
Conditions: RAW264.7 macrophages, IL-1a HTRF, actives lie on both sides, screened at 100 nM (by protocol), cells primed 5 h with Pam3CSK4 first
In short: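 Three distinct siRNAs per gene were tested singly at 100 nM in RAW264.7 macrophages. Following Pam3CSK4 priming and 24 hour LipidA transfection, IL-1a secretion was read by HTRF.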

Row | Sequence | z-score
1 | GGUACACUUUCAGAAAUGUTT against Exo5 | inactive: -0.84
2 | GGAACUGCCAGUUGACAUUTT against Olfr689 | inactive: 1.21
3 | CCACCUUUCGUUGUUACAATT against Stk36 | inactive: 0.011
4 | GGCAACAUCACUGAGUAUCTT against Glg1 | inactive: 0.57
5 | GGACCUGUUCAGCAGUUUGTT against Nckap1l | inactive: 0.0285
6 | GCAGAGGUACGUGUUUGACTT against Gdf5 | inactive: 0.933
7 | GCCUGUGGUGAUUCUCUUGTT against Tmem53 | inactive: -0.093
8 | GGCACGUUCUCGUAUAUCATT against Slc52a2 | inactive: -0.122
9 | GCCUCAGAAAAACAUCUAUTT against Msto1 | inactive: -1.51
10 | GGAGAGAAAGAAGUUGUUGTT against Lcn5 | inactive: -0.526
11 | GGAUAACCUAAUGUAGAUATT against Nphs2 | inactive: -0.0675
12 | CGAGGGCCUGAAAAACCUGTT against Hbb-b2 | inactive: 0.492
13 | CCAUCCCAUUAUUAUGUCCTT against Ago1 | inactive: -0.0226
14 | GCAAAUUAAGCACUGUAAGTT against Dennd1b | inactive: 0.379
15 | GGACCACUCUGAUGAAGAGTT against Pou3f4 | inactive: -0.887
16 | CAUCUCUCCACCAAUUCACTT against Adgrl3 | inactive: -1.3
17 | GGAUGAGGACAAGUGCUCUTT against Agpat4 | active: -3.47
18 | GCACAAAAUUCACUGUUAGTT against Olfr112 | inactive: 0.965
19 | CGAUACACUGGUGCCCUAUTT against Tmem201 | inactive: -0.158
20 | GCAUCGUCUAUCAGCUGAUTT against Rraga | inactive: -1.11
21 | GCAUCAACAAUCAAAGUUGTT against Sema3c | inactive: 0.548
22 | GGAGAUUCUCUCUGAUCAATT against Spice1 | inactive: 0.0364

In a second layout: entries from further up.
Row,Sequence,z-score
13,CCAUCCCAUUAUUAUGUCCTT against Ago1,inactive: -0.0226
14,GCAAAUUAAGCACUGUAAGTT against Dennd1b,inactive: 0.379
15,GGACCACUCUGAUGAAGAGTT against Pou3f4,inactive: -0.887
16,CAUCUCUCCACCAAUUCACTT against Adgrl3,inactive: -1.3

Quoted at random: 2 entries already listed.
Row | Sequence | z-score
19 | CGAUACACUGGUGCCCUAUTT against Tmem201 | inactive: -0.158
9 | GCCUCAGAAAAACAUCUAUTT against Msto1 | inactive: -1.51

Next part:

Row | Sequence | z-score
23 | GGGUUUGGGCUUCAACAUCTT against Lin7b | inactive: -0.41
24 | GGAUAACAGAGAUUUCUCCTT against Il15ra | inactive: 0.0534
25 | GGAAUAAUUUCACUGACUUTT against Hint3 | inactive: 0.292
26 | GCCAUUAUGACAGAACGCATT against Adra1d | inactive: -0.606
27 | GCAUCACACAGAAUAUGUUTT against F10 | inactive: 0.433
28 | GGUACCUGUGCUAUGGAGUTT against Faap24 | inactive: 0.331
29 | GGCAUGAGACAAGCUAGUCTT against Mrgpre | inactive: -0.463
30 | GGUAUAGAAUGUUUGAUCATT against Krcc1 | inactive: 0.324
31 | GGCAGAUUCAGACCUUCGATT against Sult1c2 | inactive: -0.753
32 | CCCAAACAGACUAGAUCCGTT against Rab20 | active: 3.37
33 | GUCUGAACUUCUUAGCAUCTT against Uchl4 | inactive: 0.788
34 | GCGCAGUUUCAAGGAACUGTT against Kcnf1 | inactive: -0.684
35 | CCUGACACUUAUUCUCGGGTT against 5330416C01Rik | inactive: -0.674
36 | GCUCUCUGACCUUGAUUGGTT against Lmbrd1 | inactive: -0.173
37 | GGUUAUCUUCUUGACAGAATT against Nmur2 | inactive: 1.42
38 | GCACUCAUUUUUGCCCUGGTT against Qrfpr | inactive: 0.478
39 | GGUGACUUGGGCAUUUUUUTT against Vstm4 | inactive: 0.281
40 | GGUAGAGGAUUUACUGAGCTT against Creb3 | inactive: 0.629
41 | GGAGCUGGAUGGUGUUGGUTT against Prom2 | inactive: 1.5
42 | CCCUGCUUCGUGUGCUAUUTT against C130074G19Rik | inactive: 0.499
43 | CGAAUGGCUAUCAGUGAGGTT against Tbc1d20 | inactive: -1.04
44 | CGGUUCUUUUACCAAGAUCTT against Jak3 | inactive: -0.781

Row | Sequence | z-score
45 | GGGAUUCCAGACAUGGGAATT against Alg9 | inactive: -0.191
46 | CCAGAUACCCAUAAUAUCUTT against Mbnl1 | inactive: -0.604
47 | GCCUUAUCAGGGUUAAUGGTT against Ipo4 | inactive: -0.316
48 | GGACUCAAGAAACUUGAAATT against Fam135b | inactive: 0.147
49 | GGAGUUUGUUAAUUUCGCATT against Rundc3a | inactive: 0.612
50 | GGUCUUCCUGGUUCAGCUUTT against Pold4 | inactive: -0.3
51 | GGAGCAGAAGAAUGAAGGCTT against Ergic3 | inactive: 0.468
52 | GCCUGUAUGAGCUCACUGUTT against Fbxo2 | inactive: -0.199
53 | GCAAGUUAUCCAGCACUCATT against Ylpm1 | inactive: -1
54 | GGUACACACUGUGUGGCUUTT against Paqr4 | inactive: -0.0644
55 | CGAAGAGAUCUCACUAUAATT against Trnt1 | inactive: 1.21
56 | GCAGUAUGUAAACCCUUACTT against Olfr1463 | inactive: 0.558
57 | CGGAAAAUCCUGCCUCCCUTT against S100pbp | inactive: -0.36
58 | GCUAUGGCCUUCGGUACAUTT against Selenov | inactive: 1.53
59 | GCACAAUGUACAUUAAAGUTT against Aar2 | inactive: 0.344
60 | CCAUCUUCCUCUUUCCUAUTT against Gper1 | inactive: -1.09
61 | GCUUUUUGCAUUGACUGGATT against Usp14 | inactive: -0.0587
62 | GGAGGAAAUCCAAGAACUUTT against Fgfr1op2 | inactive: 0.0184
63 | GGAGCAGAUUCGGAAGAAATT against Nr1h2 | inactive: 0.872
64 | GGCAGGUAUGGAUGUAUUGTT against Renbp | inactive: -1.72
65 | GGACUUUUACAUUGAGUCCTT against Shprh | inactive: -1.39
66 | GCAUUUAAUGCCAAACCUGTT against Kirrel | inactive: -0.0708

Row | Sequence | z-score
67 | GCAUGUAUAGCCACUUUUGTT against Ifna6 | inactive: -0.788
68 | GGUGGUGUGUUUAAUCCCATT against Gm20735 | inactive: -0.00906
69 | CCAACAGGGAGUGUUGAUUTT against Oas1b | inactive: -0.476
70 | CCAACUGCACUGUCAAACUTT against Tbcc | inactive: -0.224
71 | UCACUUGAGUUGACCAACATT against Olfr1347 | inactive: -1.33
72 | GAACUGUACCAAACCCUACTT against Klk1b24 | inactive: 0.442
73 | GCCGGAAGAAACUCAUGCUTT against Mad2l1bp | inactive: -0.152
74 | GGAUAUAGAGCUAAGUAAGTT against Dgka | inactive: -0.319
75 | GGUCAGGCUGAGGAAUUCATT against Cyp2s1 | inactive: -0.562
76 | CCACCUAUCUCUAACUACCTT against Mrpl40 | inactive: 1.35
77 | GCCUAUUUCCGUGAACCCGTT against Mgmt | inactive: -1.04
78 | GGUGGCUAUGGAAACUACCTT against Thrap3 | inactive: 1.67
79 | GGAGGAAUUUCAGUUUCUGTT against Pml | inactive: 0.242
80 | GGUCCGAUUCAAAUACCCATT against Ppp6r2 | inactive: -0.236
81 | CGCGCUGAUAUUAACGGUGTT against Olfr70 | inactive: 0.115
82 | GGCCCAGAACAAGAUCAAGTT against Ldb3 | inactive: 0.844
83 | GAUGCUAACCAACCUUGGATT against Olfr134 | inactive: 0.67
84 | GCUGUUGGUGGAAUGGAAGTT against Slc5a11 | inactive: -0.262
85 | GGCAUAGGCAUUUUCAAAATT against Gucy2f | inactive: 1.22
86 | GGUUAAAAAUAAUGUGGGCTT against Sval2 | inactive: -0.195
87 | GCUUACAAGUUGCUACUGGTT against Dnajc8 | inactive: 0.425
88 | GGAAAUGACGACUACCAAGTT against Tspyl4 | active: 2.74

Row | Sequence | z-score
89 | GGGAGUGAAGUUUCACAGATT against Slamf6 | inactive: -0.791
90 | GGGCAUGCAGAUAAAAUAATT against Akr1b8 | inactive: -0.258
91 | CCAACUUCCAAGCUUAAAATT against Ucp3 | inactive: 0.652
92 | GCAGGAUGUGACAGAUACATT against Pdcd2 | inactive: 0.185
93 | GGUUGCUGUUGAUGUCAGCTT against Mlh3 | inactive: -1.94
94 | GGACGGACAAAUUGAUGCUTT against Sri | inactive: -1.28
95 | GGACCUGUGGAACCAUUCCTT against Nrros | inactive: -0.897
96 | GGGUUUAGCCAUCUGUUUCTT against Stap2 | inactive: -0.0941
97 | GGAACUUAAUGACUCUGUGTT against Fv1 | inactive: -0.735
98 | GGUCUUUAUCUACCAUGGGTT against Itga7 | inactive: -1.29
99 | GGAAGAUAUUCACAGGGUATT against Wnt9b | inactive: -0.455
100 | GCAUUUCCUGUGGUCUAUGTT against Itlnb | inactive: -0.838
101 | GCCGUGUUCAUGAAUAAACTT against Glce | inactive: -0.392
102 | GAACAGUCCUUUUAUGGAUTT against Vmn1r33 | inactive: 0.38
103 | GGAGGAUGCUGCCUAUGACTT against B4galt2 | inactive: -0.592
104 | CCUGCAUUAUUUAUGAAAGTT against Mfap3l | inactive: -0.449
105 | GGUGGAAUACUUGGAGCAGTT against Gstm4 | active: 2.98
106 | CCCAAGCUCGGCUAUCGUATT against E2f8 | inactive: -0.00648
107 | GGUGGAUAAAACCAAAAUGTT against Orc6 | inactive: 0.586

A second format for some results above:
GGAAGAUAUUCACAGGGUATT against Wnt9b
  z-score: inactive: -0.455
GCAUUUCCUGUGGUCUAUGTT against Itlnb
  z-score: inactive: -0.838

Source: PubChem BioAssay AID1508600 (Functional Genomics Laboratory (NCATS/FGL), 2020)
